AC50 data for 53 molecules are collected here from PubChem BioAssay AID1487 (National Center for Advancing Translational Sciences (NCATS), 2009).

Broadly, the AC50 is the concentration giving half of the maximal activity seen.

This test in a line: qHTS Assay for Modulators of Lamin A Splicing. As to conditions: HeLa LMNA splicing GFP/RFP minigene ratio, 48 h. Put shortly:
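Read-out is the ratio of GFP to DsRed2 object intensity, acquired by 488 nm laser-scanning cytometry on HeLa lamin A-EGFP minigene reporter cells. Compound incubation 48 hrs at 37 °C in Opti-MEM with 2% FBS; DMSO 0.5% final.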
Background: Quantitative high-throughput screening tests each substance at several concentrations.

Where [1] appears, read: measured here: GFP splicing reporter channel.
[2] abbreviates: measured here: RFP viability control channel.

The other results are listed elsewhere or left out. These are further read-outs of the screen, such as a control signal, another cell line or another target. No call is given for them. Compounds called inactive in the main read-out are mostly missing here. Potencies come from curve fits of mixed quality, noted in brackets.

`CCN[C@@H]1C[C@H](C)S(=O)(=O)c2sc(S(N)(=O)=O)cc21`: the AC50 under setting [1] is 0.398 µM [falling, full curve] and the AC50 under setting [2] is 0.224 µM [falling, full curve]. Consider `CCCCOCCCNc1ncnc2c1[nH]c1ccccc12`, for which, under setting [2], the AC50 is 5.01 µM [rising, full curve]. For the molecule `O=C(/C=C/c1ccc(Cl)cc1Cl)NCCSc1ccccc1`, the AC50 is 35.5 µM [rising, single point] under setting [1] and 17.8 µM [rising, single point] under setting [2]. For `O=C(NNC(=O)c1c(F)cccc1F)c1ccccc1-n1cccc1`, the AC50 under setting [1] is 6.31 µM [rising, single point]. In the case of `Cc1ccc2cc(CN(CC3CCCO3)C(=S)Nc3ccccc3)c(=O)[nH]c2c1C` (stereo not drawn), under setting [2], the AC50 was 5.01 µM [rising, single point]. The same measure, in the same setting: to `COC(=O)c1c(C)oc2ccc(N(C(=O)Oc3ccccc3)S(=O)(=O)c3ccc(Cl)c([N+](=O)[O-])c3)cc12` belongs 14.1 µM [rising, partial curve]. For the molecule `O=C(c1ccccc1F)N1CCN(c2ccc([N+](=O)[O-])c(NCC3CCCO3)c2)CC1` (stereo not drawn), the concentration at half-maximal activity (AC50) is 3.55 µM [falling, single point] under setting [1] and 5.62 µM [falling, partial curve, poor fit] under setting [2]. For `Cc1ccc(-n2cccc2/C=C2/C(=N)N3C(=NC2=O)SN=C3S(C)(=O)=O)cc1`, the AC50 under setting [1] is 5.62 µM [rising, partial curve, poor fit].

For the molecule `COc1cc(CN2CCN(c3cccc(Cl)c3)CC2)cc(OC)c1OC`, the AC50 under setting [2] is 7.08 µM [rising, partial curve]. As to `Cc1cc(C(=O)COC(=O)c2ccc(N)c([N+](=O)[O-])c2)c(C)n1-c1ccc2c(c1)OCO2`, the AC50 runs as follows: under setting [1], 8.91 µM [rising, partial curve]; under setting [2], 14.1 µM [rising, partial curve]. On to `O=C(/C=C/c1ccco1)N1CCCC(c2ccccc2)C1` (stereo not drawn), for which the AC50 under setting [2] is 31.6 µM [falling, single point]. For `COc1ccc(/C=C/C(=O)c2c(O)c(OC)c3occc3c2OC)cc1`, the concentration at half-maximal activity (AC50) under setting [1] was 11.2 µM [falling, partial curve, poor fit] and the AC50 under setting [2] is 35.5 µM [falling, single point]. For `CCCCCCS(=O)[C@H]1CS(=O)(=O)C[C@@H]1S(=O)CCCCCC` (stereo partly drawn), the AC50 under setting [2] is 35.5 µM [falling, single point]. On to `Cc1c(C(=O)NCCCN2CCOCC2)oc2c1C1(CCC2)SCCS1`, for which the AC50 under setting [2] is 5.01 µM [rising, partial curve]. On to `C=CCn1c(SCc2csc(-c3ccc(C)cc3)n2)nnc1-c1ccccc1OC`, for which the AC50 under setting [2] was 12.6 µM [rising, partial curve, poor fit]. Take `Clc1ccc(COc2ccccc2-c2ccnc3ncnn23)cc1`: the AC50 is 0.794 µM [rising, full curve, poor fit] under setting [1] and 0.794 µM [rising, full curve, poor fit] under setting [2]. For `COc1ccc(-c2nn(-c3ccccc3)cc2/C=C/C(=O)N2CCOCC2)cc1OC`, the concentration at half-maximal activity (AC50) under setting [1] was 1.78 µM [falling, full curve, poor fit] and the AC50 under setting [2] is 1 µM [falling, partial curve, poor fit]. `COc1ccc(CC2(CO)CCN(Cc3cnn(-c4ccc(F)cc4)c3)CC2)cc1`: the AC50 was 1.78 µM [falling, partial curve, poor fit] under setting [1] and 1.41 µM [falling, partial curve, poor fit] under setting [2].

As to `COc1ccc(/C=C2/CCc3ccccc3C2=O)cc1CN1CCOCC1`, the AC50 by setting is: under setting [1], 12.6 µM [rising, single point]; under setting [2], 12.6 µM [rising, single point]. As for `CCc1nnc(NC(=O)CSc2nccn2Cc2ccccc2)s1`, under setting [1], the AC50 was 0.562 µM [rising, single point]. For the molecule `O=C(Cn1c(-c2cccs2)cc2ccccc21)NCCCN1CCN(c2cccc(Cl)c2)CC1`, the AC50 is, setting by setting: under setting [1], 28.2 µM [falling, partial curve]; under setting [2], 28.2 µM [falling, single point]. `CSc1nc(N)nc(SCC(=O)OC(C)C)c1C#N`: the AC50 under setting [2] is 7.94 µM [rising, partial curve, poor fit]. As to `CC1=CC(=NOC(=O)/C=C/c2ccccc2)C=C(C)C1=O`, the AC50 is 0.0282 µM [falling, single point] under setting [1] and 0.0224 µM [falling, single point] under setting [2].

With `O=C(NC(Nc1nc2ccc([N+](=O)[O-])cc2s1)(C(F)(F)F)C(F)(F)F)c1cccnc1`, the AC50 runs as follows: under setting [1], 0.794 µM [falling, full curve]; under setting [2], 1.26 µM [falling, partial curve]. As to `COc1ccccc1C(=O)Nc1ccc2c(c1)nc1n2CCSC1`, under setting [2], the AC50 is 20 µM [rising, partial curve, poor fit]. With `Cc1ccc(S(=O)(=O)N/N=C\c2cc3c(cc2[N+](=O)[O-])OCO3)cc1`, the half-maximal activity concentration (AC50) under setting [2] is 35.5 µM [rising, single point]. Regarding `C/C(=N\NC(=O)c1cc(C(C)C)[nH]n1)c1ccco1`, the AC50 under setting [1] is 2.24 µM [falling, full curve, poor fit].

Turning to `COc1ccc(/C=N/NC(=O)c2ccc(COc3cccc4cccnc34)cc2)cc1OC`, the AC50 under setting [2] is 0.562 µM [rising, full curve]. On the same count and under the same terms, in the case of `CC(C)(C)c1ccc(C(=O)N2CCN(c3nc4ccccc4o3)CC2)cc1` it was 5.62 µM [rising, single point]. On to `CN1CCN(c2ncnc3ccc(-c4cccc(NS(C)(=O)=O)c4)cc23)CC1`, for which the AC50 is 3.98 µM [falling, partial curve] under setting [1] and 8.91 µM [falling, partial curve] under setting [2]. Regarding `C/C(=N\NC(=S)Nc1ccc(F)cc1)C1CC1`, the AC50 was 7.08 µM [falling, full curve] under setting [1] and 3.55 µM [falling, full curve] under setting [2]. Consider `C=C(C)C1Cc2c(C)nn(-c3nc(C)cc(C)n3)c2C1` (stereo not drawn), for which the AC50 under setting [2] is 11.2 µM [rising, partial curve]. On to `CCc1ccc2c(c1)C1(NN=C(c3ccccc3)S1)C(=O)N2` (stereo not drawn), for which the AC50 under setting [1] was 35.5 µM [rising, single point] and the AC50 under setting [2] is 12.6 µM [rising, partial curve]. Consider `Cc1cc(-n2c(SCc3ccccc3F)nc3[nH]ncc3c2=O)ccc1Cl`, for which the concentration at half-maximal activity (AC50) under setting [1] is 35.5 µM [falling, single point]. For `O=[N+]([O-])c1ccc(C(=S)N2CCN(Cc3ccccc3)CC2)cc1`, the AC50 under setting [2] is 31.6 µM [rising, single point]. With `Cc1ccc(C(=O)Nc2ccccc2)cc1S(=O)(=O)Nc1ccc(Cl)cn1`, the AC50 is, setting by setting: under setting [1], 0.0251 µM [falling, full curve, poor fit]; under setting [2], 35.5 µM [falling, single point]. On to `OCCN(Cc1ccccc1)C(=S)Nc1ccc(F)cc1`, for which the AC50 was 0.0447 µM [falling, full curve, poor fit] under setting [1] and 6.31 µM [falling, full curve] under setting [2]. On to `COc1ccc(Cl)cc1NC(=O)C(C)n1c(=O)cc(C(F)(F)F)c2c(C)nn(C)c21` (stereo not drawn), for which the AC50 under setting [2] is 0.0562 µM [falling, full curve, poor fit].

With `CC(C)c1ccc(-c2nn(-c3ccccc3)cc2C2C(C#N)=C(N)OC3=C2C(=O)CC(C)(C)C3)cc1` (stereo not drawn), the AC50 under setting [1] is 12.6 µM [falling, partial curve] and the AC50 under setting [2] is 15.8 µM [falling, single point]. In the case of `O=C(NC(=S)N1CCN(Cc2ccc3c(c2)OCO3)CC1)c1cccc(Br)c1`, the AC50 is 15.8 µM [rising, single point] under setting [1] and 25.1 µM [rising, single point] under setting [2]. `COc1ccc(S(=O)(=O)Nc2cc(Cl)ccc2OC)cc1`: the AC50 under setting [1] was 35.5 µM [rising, single point] and the AC50 under setting [2] is 11.2 µM [rising, partial curve].

Consider `COc1ccc(CNCCc2ccc(Cl)cc2)cc1OCc1ccccc1`, for which the AC50 is, setting by setting: under setting [1], 31.6 µM [falling, partial curve, poor fit]; under setting [2], 31.6 µM [falling, partial curve].

Consider `O=C(CN1CCCc2ccccc21)N/N=C/c1c(O)ccc2ccccc12`, for which the AC50 under setting [2] was 17.8 µM [rising, single point]. Regarding `CCOC(=O)c1c(NC(=O)CSc2nc3ccccc3o2)sc(C(C)=O)c1C`, the AC50 by setting is: under setting [1], 3.16 µM [rising, partial curve]; under setting [2], 5.62 µM [rising, partial curve, poor fit]. Take `COc1cccc2c(=O)cc(C)n(CC(=O)Nc3ccccc3C)c12`: the AC50 under setting [2] is 22.4 µM [rising, single point]. For `CC1(N2CCOCC2)CC2(O)C(=[N+]1[O-])CCc1c2no[n+]1[O-]` (stereo not drawn), the AC50 under setting [2] was 20 µM [falling, single point].

In the case of `Cc1nnc(-c2ccco2)c2cn(-c3cccc(Br)c3)nc12`, the AC50 under setting [2] was 14.1 µM [rising, partial curve, poor fit]. For the molecule `Cc1[nH]nc2c1C(c1cc(Br)cs1)C(C#N)=C(N)O2` (stereo not drawn), the AC50 was 35.5 µM [falling, single point] under setting [1] and 35.5 µM [falling, single point] under setting [2]. Take `CC1(C)C(O)=C(c2nc3ccccc3[nH]2)C(=N)N1c1ccccc1`: the AC50 under setting [1] is 35.5 µM [falling, single point] and the AC50 under setting [2] is 17.8 µM [falling, single point]. For the molecule `COc1ccc(NC(=O)CSc2ccccc2)cc1S(=O)(=O)N1CCCCC1`, the AC50 is 12.6 µM [rising, single point] under setting [1] and 35.5 µM [rising, single point] under setting [2]. Regarding `N#Cc1ccccc1NC(=O)c1cc(=O)c2ccccc2o1`, the AC50 under setting [2] was 1.26 µM [rising, single point]. With `O=C(Nc1cc(Cl)cc(Cl)c1)c1cccc(OC(F)F)c1`, the AC50 under setting [2] is 12.6 µM [rising, single point].

`Cc1cc(NC(=O)C2CCN(S(=O)(=O)Cc3ccccc3)CC2)ccc1-n1cnnn1`: under setting [2], the AC50 is 35.5 µM [rising, single point].
